Data set [1] in a line: Lipophilicity, log D of the compound at pH 7.4. To be noted: buffer.
Data set [2] is described as follows: Permeability of the compound by PAMPA.
Data set [3] can be described thus: Kinetic solubility of the compound.

The structures appear in SMILES notation. Converted amounts (≈) assume the structure as drawn.

One may read the logD as lipophilicity at a set pH, counting ionised and neutral species. As usually defined, the Papp is a coefficient for how fast a substance crosses the barrier. Lower therefore signals slow passage. By solubility (kinetic) is commonly meant solubility judged after dilution from a stock solution rather than from solid. In the case of `CN1CCC(c2nc(-c3ccc(F)cc3)c(-c3ccnc(Nc4ccc(N5CCNCC5)cc4)n3)s2)CC1`, in data set [1], the logD stood at 1.8. This molecule displayed a Papp in data set [2] of 7.5 ×10⁻⁶ cm/s. This molecule yielded a kinetic solubility in data set [3] of 209 µM (≈ 111 µg/mL).

These data come from ChEMBL document CHEMBL4265899, “Trisubstituted thiazoles as potent and selective inhibitors of Plasmodium falciparum protein kinase G (PfPKG)” (Bioorg Med Chem Lett, 2018).
